PubChem BioAssay AID540276 (National Center for Advancing Translational Sciences (NCATS), 2011)
The whole screen tested about 300,000 compounds, of which about 5,400 (1.8%) were called active. Inconclusive means that the source gave no clear call. Such entries were picked first, then a sample of the others. Calls follow the shape of the full dose curve; tested in HEK293 cells. Potencies beside an inconclusive call are fits to weak or partial responses and may not hold up.

Experiment: qHTS for inhibitors of binding or entry into cells for Marburg Virus
Conditions: Marburg virus pseudotyped entry inhibition, cell reporter; series mostly up to 37.8 µM
Potency is read from the fitted curve at half-maximal effect.

Row | SMILES | Potency
1 | CCOc1ccc(CN2CCN(Cc3cccc4nonc34)CC2CCO)cc1 (stereo not given) | inactive
2 | Cc1ccc(NS(=O)(=O)c2cccc(C(=O)Nc3cccnc3)c2)c(C)c1 | inconclusive: 7.08 µM [inhibitor, partial curve, poor fit]
3 | N/C(=N\OC(=O)CCC1CCCC1)c1ccc([N+](=O)[O-])cc1 | inconclusive: 10 µM [activator, partial curve, poor fit]
4 | COc1ccc(-c2noc(CN(C(=O)C(C)(C)C)C(C)C)n2)cc1 | inconclusive: 11.2 µM [activator, single point]
5 | CO/N=C(/C)CCS(=O)(=O)c1ccccc1 | inactive
6 | C=CCOC(=O)N[C@@H](CC(C)C)/C(C(=O)OC)=C(\C)NCc1ccccc1 | inconclusive: 0.15 µM [inhibitor, full curve, poor fit]
7 | COC(=O)Nc1nnc(-c2ccccc2OC)s1 | inconclusive: 2.82 µM [activator, single point]
8 | O=C(C1CCN(S(=O)(=O)N2CCC3(CC2)OCCO3)CC1)N1CCc2ccccc2C1 | inconclusive: 1.26 µM [activator, partial curve, poor fit]
9 | CCNC(=S)N1CCC(c2nc3ccccc3s2)CC1 | inactive
10 | Nc1cc(-c2ccccc2)n2c(n1)nc1ccccc12 | inconclusive: 0.501 µM [inhibitor, full curve, poor fit]
11 | C[N+](C)(C)CC=O | inconclusive: 0.0562 µM [inhibitor, full curve]
12 | COc1ccc(CCNC(=O)c2ccccc2NS(=O)(=O)c2cc(C(=O)O)ccc2OC)cc1 | inconclusive: 31.6 µM [activator, single point]
13 | O=C1c2ccccc2-c2n[nH]c(=O)c3ccc(N4CCCCC4)c1c23 | inactive
14 | COc1cc(CN2CCCCC2)ccc1OCc1ccccc1 | inconclusive: 8.91 µM [inhibitor, partial curve]
15 | O=C(CC(c1ccccc1O)N1CCCCC1)N1CCCCC1 (stereo not given) | inconclusive: 0.164 µM [activator, full curve, poor fit]
16 | C=CCSC1=N/C(=C\c2ccc3c(c2)OCO3)C(=O)S1 | inactive
17 | Cc1cnc(NC(=O)c2sc3ccccc3c2Cl)s1 | inconclusive: 0.631 µM [inhibitor, full curve, poor fit]
18 | O=C(NCc1ccccc1)c1ccc(Br)cc1 | inconclusive: 0.562 µM [activator, full curve, poor fit]
19 | CC(C)(C)NC(=S)NCc1ccncc1 | inactive
20 | Clc1ccccc1CSc1ncn(-c2ccccc2)n1 | inconclusive: 29.1 µM [activator, single point]
21 | Cc1cc(Cl)ccc1OCC(=O)Nc1ccccc1CO | inactive
22 | CCOC(=O)C1=NN(C(=O)Cc2ccccc2)C(O)(c2ccc(Cl)cc2)C1 (stereo not given) | inconclusive: 0.631 µM [inhibitor, full curve, poor fit]
23 | CC1(C)CC(=O)c2cnc(NC(=O)CSC(=S)N3CCCCC3)nc2C1 | inconclusive: 17.8 µM [inhibitor, single point]
24 | c1ccc(N(c2ccccc2)c2nc(N3CCCC3)nc(-n3ccnc3)n2)cc1 | inconclusive: 29.1 µM [inhibitor, single point]

Row | SMILES | Potency
25 | CN(CC(=O)NCCc1ccccc1)S(=O)(=O)c1cnc[nH]1 | inconclusive: 7.94 µM [activator, partial curve, poor fit]
26 | O=C(CCCn1c(SCC(=O)c2ccc(Cl)cc2)nc2ccccc2c1=O)NCc1ccco1 | inconclusive: 29.1 µM [inhibitor, single point]
27 | Cc1ccc(Cn2cc(/C=C/C(=O)O)c(-c3ccccc3)n2)cc1 | inactive
28 | CCc1ccccc1NC(=O)c1sc(-n2nc(C)c(Cc3ccc4c(c3)OCO4)c2C)nc1C | inactive
29 | CCNC(=S)/N=C(/Nc1ccccc1)Nc1nc(C)cc(C)n1 | inconclusive: 12.6 µM [inhibitor, partial curve, poor fit]
30 | CCOC(=O)C1CCCN(S(=O)(=O)c2ccc3[nH]c(=O)oc3c2)C1 (stereo not given) | inactive
31 | CCCCOc1ccccc1C1NC(=O)CCC1[N+](=O)[O-] (stereo not given) | inconclusive: 35.5 µM [activator, single point]
32 | CCc1cc(=O)[nH]c(SCc2ccc(C)cc2)n1 | inconclusive: 6.31 µM [inhibitor, single point]
33 | CC1(C(=O)N(CC(=O)NC2CCCC2)Cc2ccc(Cl)cc2)CC(=O)N=C2C=CC=CN21 (stereo not given) | inactive
34 | CN(C)c1ccc(/C=N/NC(=O)c2cccc(N3CCCC3=O)c2)cc1 | inactive
35 | COc1ccc(NS(=O)(=O)c2ccc(NC(C)=O)cc2)c(OC)c1 | inconclusive: 0.562 µM [inhibitor, full curve, poor fit]
36 | CC1Cc2ccccc2N1C(=O)CSc1nnc(-c2ccc(S(=O)(=O)N3CCOCC3)cc2)n1C (stereo not given) | inconclusive: 35.5 µM [inhibitor, single point]
37 | CCCCCn1cc2c(c1-c1ccc(Cl)cc1)c(=O)n(C)c(=O)n2C | inactive
38 | O=c1[nH]c(Cc2ccccn2)nc2scc(-c3ccc(Cl)cc3)c12 | inactive
39 | O=[N+]([O-])c1cccc(N/N=C/c2ccc(N3CCOCC3)cc2)c1 | inconclusive: 5.62 µM [activator, single point]
40 | COc1cccc(CNc2ncc(Br)cc2Br)c1O | inconclusive: 12.6 µM [inhibitor, single point]
41 | O=C(O)CSCCc1ccccn1 | inconclusive: 35.5 µM [inhibitor, single point]
42 | Clc1cccc(OCc2nc(-c3ccncc3)n[nH]2)c1 | inconclusive: 31.6 µM [inhibitor, single point]
43 | COc1ccc(C(=O)c2coc3ccc(OC(C)=O)cc23)cc1 | inconclusive: 35.5 µM [inhibitor, single point]
44 | Cc1ccccc1OCCSc1nc(N(C)C)nc(N(C)C)n1 | inconclusive: 8.91 µM [inhibitor, partial curve, poor fit]
45 | CCn1c(SCC(=O)Nc2ccc(OC)c(OC)c2)nnc1-c1cccs1 | inconclusive: 18.3 µM [activator, single point]
46 | COc1ccc(OCC(=O)Nc2cc(-c3nn(C)c(=O)c4ccccc34)ccc2OC)cc1 | active: 4.11 µM
47 | CCOc1ccc2nc(SCC(=O)N(CC(C)C)c3c(N)n(Cc4ccccc4)c(=O)[nH]c3=O)[nH]c2c1 | inconclusive: 0.631 µM [activator, partial curve, poor fit]
48 | COc1cccc(N2CCN(Cc3nc4scc(-c5ccccc5)c4c(=O)[nH]3)CC2)c1 | inconclusive: 17.8 µM [inhibitor, single point]

Some values from the list.
Potency, Cc1ccc(Cn2cc(/C=C/C(=O)O)c(-c3ccccc3)n2)cc1 reads inactive
Potency, COc1cccc(N2CCN(Cc3nc4scc(-c5ccccc5)c4c(=O)[nH]3)CC2)c1 reads inconclusive: 17.8 µM [inhibitor, single point]
Potency, O=C(O)CSCCc1ccccn1 reads inconclusive: 35.5 µM [inhibitor, single point]
Potency, CC1Cc2ccccc2N1C(=O)CSc1nnc(-c2ccc(S(=O)(=O)N3CCOCC3)cc2)n1C (stereo not given) reads inconclusive: 35.5 µM [inhibitor, single point]

(cont.)

Row | SMILES | Potency
49 | CC(C)N1CCc2nc(SCC(=O)Nc3cccc(F)c3)[nH]c(=O)c2C1 | inactive
50 | c1ccc2nc3c(nc2c1)c1ccccc1n3CCN1CCOCC1 | inactive
51 | COc1ccc(CCN(C)Cc2c(O)ccc3ccccc23)cc1OC | inconclusive: 7.94 µM [inhibitor, partial curve]
52 | CN(C(=O)c1ccccn1)C1(C(=O)NC2CCCCC2)CCCCC1 | inconclusive: 0.366 µM [inhibitor, partial curve, poor fit]
53 | Cc1cc(C)c2c(n1)nn1c(NCCOCCO)cc(C)nc21 | inactive
54 | COC(=O)c1ccc(NC(c2ccc(Cl)cc2)P(=O)(OC)OC)cc1 (stereo not given) | inconclusive: 35.5 µM [activator, single point]
55 | CC(=O)Nc1nc(-c2cccc3ccccc23)cs1 | inconclusive: 2 µM [activator, single point]
56 | CC(C)c1onc(C(=O)NCCc2ccccc2)c1[N+](=O)[O-] | inconclusive: 11.2 µM [inhibitor, partial curve, poor fit]
57 | Cc1cc(C)c(C#N)c(SCS(=O)c2ccc(C(C)(C)C)cc2)n1 (stereo not given) | inconclusive: 7.3 µM [inhibitor, partial curve]
58 | COCc1cc(C)nc2sc3c(c12)NC(c1ccc(O)cc1)N(c1ccc(C)cc1)C3=O (stereo not given) | inconclusive: 20 µM [inhibitor, single point]
59 | COc1ccccc1OCCC(=O)OCCN1C(=O)c2ccccc2C1=O | inconclusive: 8.91 µM [inhibitor, partial curve, poor fit]
60 | CCCCc1c(C)c(C#N)c2nc3ccccc3n2c1Cl | inactive
61 | CCC1CCCCN1CCCNC(=O)CSc1nc2nc(C)c(Cc3ccc(C)cc3)c(C)n2n1 (stereo not given) | active: 11.2 µM
62 | CNC(=S)N(Cc1cc2ccc(OC)cc2[nH]c1=O)CC1CCCO1 (stereo not given) | inconclusive: 2.82 µM [inhibitor, partial curve, poor fit]
63 | COc1ccccc1CC(=O)Nc1ccc2nc(C)sc2c1 | inactive
64 | O=C(COC(=O)c1ccccc1NCCO)Nc1cc(C(F)(F)F)ccc1N1CCOCC1 | inconclusive: 7.94 µM [inhibitor, partial curve, poor fit]
65 | Cc1nc2ccc(Cl)cn2c1C(=O)NN | inactive
66 | CS(=O)(=O)c1ccc2c(c1)SC1=NC(=O)/C(=C/c3ccco3)C(=N)N12 | inconclusive: 3.16 µM [activator, partial curve, poor fit]
67 | CC1=C(C(=O)OC(C)C)C(C)C(C(=O)OC(C)C)=C(C)N1 | inconclusive: 29.1 µM [inhibitor, single point]
68 | Cc1ccc(C)c(N2CCN(C(=O)CN3C(=O)c4ccccc4C3=O)CC2)c1 | inactive
69 | COc1ccccc1C(CNC(=O)c1cccc(NS(=O)(=O)c2ccc(C)c(F)c2)c1)N(C)C (stereo not given) | inconclusive: 25.1 µM [inhibitor, single point]
70 | Cc1ccc(CNC(=O)CCC2CCCN(Cc3cccc4ncccc34)C2)o1 (stereo not given) | inactive
